Assay results: paper PMC5201011 (2016)
These are yes or no findings as the source states them, for the method shown. Binding seen in cells or lysates may run through a third protein. Here binding means that the protein was enriched with, or labelled near, the bait; the list need not be complete. Sequences can lack the tags named with a protein.

Biological target: T1, GST–Rab40b (UniProt Q12829)
T1 sequence: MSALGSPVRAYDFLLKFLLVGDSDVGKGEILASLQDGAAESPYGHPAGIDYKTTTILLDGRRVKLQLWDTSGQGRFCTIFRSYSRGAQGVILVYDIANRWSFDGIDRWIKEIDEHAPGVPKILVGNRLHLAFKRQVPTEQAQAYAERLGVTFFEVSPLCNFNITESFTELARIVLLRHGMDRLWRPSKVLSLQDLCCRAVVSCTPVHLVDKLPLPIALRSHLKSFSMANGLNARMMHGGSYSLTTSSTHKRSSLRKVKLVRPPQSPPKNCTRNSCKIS
Test: affinity purification with mass spectrometry; MDA-MB-231 cell lysates incubated with GST or GST–Rab40b-coated beads (affinity column); bound proteins analysed by mass spectrometry; only the target purified

binding: binds
B1: Tks5 (tyrosine kinase substrate 5) (protein, UniProt Q5TCZ1 1-1133)
chain: MLAYCVQDATVVDVEKRRNPSKHYVYIINVTWSDSTSQTIYRRYSKFFDLQMQLLDKFPIEGGQKDPKQRIIPFLPGKILFRRSHIRDVAVKRLKPIDEYCRALVRLPPHISQCDEVFRFFEARPEDVNPPKEDYGSSKRKSVWLSSWAESPKKDVTGADATAEPMILEQYVVVSNYKKQENSELSLQAGEVVDVIEKNESGWWFVSTSEEQGWVPATYLEAQNGTRDDSDINTSKTGEVSKRRKAHLRRLDRRWTLGGMVNRQHSREEKYVTVQPYTSQSKDEIGFEKGVTVEVIRKNLEGWWYIRYLGKEGWAPASYLKKAKDDLPTRKKNLAGPVEIIGNIMEISNLLNKKASGDKETPPAEGEGHEAPIAKKEISLPILCNASNGSAVGVPDRTVSRLAQGSPAVARIAPQRAQISSPNLRTRPPPRRESSLGFQLPKPPEPPSVEVEYYTIAEFQSCISDGISFRGGQKAEVIDKNSGGWWYVQIGEKEGWAPASYIDKRKKPNLSRRTSTLTRPKVPPPAPPSKPKEAEEGPTGASESQDSPRKLKYEEPEYDIPAFGFDSEPELSEEPVEDRASGERRPAQPHRPSPASSLQRARFKVGESSEDVALEEETIYENEGFRPYAEDTLSARGSSGDSDSPGSSSLSLTRKNSPKSGSPKSSSLLKLKAEKNAQAEMGKNHSSASFSSSITINTTCCSSSSSSSSSLSKTSGDLKPRSASDAGIRGTPKVRAKKDADANAGLTSCPRAKPSVRPKPFLNRAESQSQEKMDISTLRRQLRPTGQLRGGLKGSKSEDSELPPQTASEAPSEGSRRSSSDLITLPATTPPCPTKKEWEGPATSYMTCSAYQKVQDSEISFPAGVEVQVLEKQESGWWYVRFGELEGWAPSHYLVLDENEQPDPSGKELDTVPAKGRQNEGKSDSLEKIERRVQALNTVNQSKKATPPIPSKPPGGFGKTSGTPAVKMRNGVRQVAVRPQSVFVSPPPKDNNLSCALRRNESLTATDGLRGVRRNSSFSTARSAAAEAKGRLAERAASQGSDSPLLPAQRNSIPVSPVRPKPIEKSQFIHNNLKDVYVSIADYEGDEETAGFQEGVSMEVLERNPNGWWYCQILDGVKPFKGWVPSNYLEKKN
